Experimental data as given in PubChem BioAssay AID493014 (National Center for Advancing Translational Sciences (NCATS), 2011).
This is one part of the list. Shown are side measurements of this screen, not its main read-out; they come without a call. Compounds called inactive in the main read-out are mostly missing here. The note in brackets gives the kind of curve behind each potency; many fits are weak.

Experiment: qHTS Assay to Find Inhibitors of Chronic Active B-Cell Receptor Signaling
Conditions: ABC-DLBCL IkBa-CBG/CBR reporter, luminescence ratio (green luciferase fused to IkBa over red control in TMD8 lymphoma cells), 4 h
Method in brief: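 TMD8 ABC-DLBCL cells carrying doxycycline-inducible green luciferase fused to IkappaBalpha plus unfused red luciferase were exposed to compounds (up to 46 uM) for 4 hrs at 37C. Activity came from the overlap-corrected green/red luminescence ratio.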

[1] = measured here: CBR red luminescence, cell number
[2] = measured here: IkBa-CBG green luminescence

| SMILES | AC50 [1] | AC50 [2] |
| --- | --- | --- |
| Cc1c(NC(=O)CSc2ccc(Cl)cc2)cccc1-c1nc2cc(Cl)ccc2o1 | 29.1 µM [rising, single point] |  |
| CCOC(=O)N1CCN(S(=O)(=O)c2cc([N+](=O)[O-])c(C)cc2C)CC1 | 11.2 µM [rising, single point] |  |
| Nc1c(NCc2ccccc2)c2ccccc2oc1=O | 16.4 µM [falling, single point] |  |
| O=C(CCN1C(=O)C2CCCCC2C1=O)Nc1nc(-c2ccc(F)c(F)c2)cs1 (centres undefined) | 10 µM [rising, partial curve, poor fit] |  |
| CCOC(=O)C(=CNNc1cccc(Cl)c1)C(=O)OCC | 35.5 µM [falling, single point] |  |
| CC(=O)c1cc2c(cc1NC(=O)CCc1ccccc1)OCO2 | 29.1 µM [falling, partial curve, poor fit] |  |
| N#Cc1nc(COc2ccc(F)cc2)oc1NCCN1CCOCC1 | 6.51 µM [rising, single point] |  |
| CCO[C@H]1OC(C(=O)NCc2nc3ccccc3[nH]2)=C[C@@H](c2csc3ccccc23)[C@@H]1CCCO | 12.6 µM [falling, single point] |  |
| Cc1cc(OCC(=O)NCC(C)C)cc(C)c1Br | 3.26 µM [rising, partial curve] |  |
| COc1cc2c(cc1OC)C(c1ccccc1)N(C(=O)C(C)(C)C)CC2 (centres undefined) | 8.91 µM [falling, partial curve, poor fit] |  |
| O=C(O)C1CCCCC1C(=O)Nc1ccc2c(c1)CCC2 (centres undefined) | 20.6 µM [rising, single point] |  |
| COc1ccc(OC)c(NC(=O)CSC2=Nc3ccccc3C3=NC(CCC(=O)NCCc4ccccc4)C(=O)N23)c1 (centres undefined) | 12.6 µM [falling, partial curve, poor fit] |  |
| Cc1ccc(Cl)cc1Nc1nc(-c2sc(NC(=O)C(C)(C)C)nc2C)cs1 | 12.6 µM [falling, partial curve] |  |
| Cc1ccccc1C(=O)NCC(=O)OCCOc1ccc(C(C)C)c(C)c1 | 16.4 µM [rising, partial curve, poor fit] |  |
| CC(=O)c1cc(-c2ccccc2)n(CCC(=O)NC2CCCCCC2)c1C | 0.651 µM [rising, single point] |  |
| COc1ccc2ccccc2c1/C=N/NC(=O)c1ccccc1F | 35.5 µM [falling, single point] |  |
| CCCCOc1ccccc1NC(=O)CSc1nnnn1C(C)(C)C | 11.2 µM [falling, partial curve, poor fit] |  |
| COc1ccc(-c2nnc(NC(=O)CSc3ccccc3)s2)cc1OC | 11.6 µM [rising, partial curve, poor fit] |  |
| CCN(CC(=O)Nc1cccc(S(=O)(=O)N2CCCCC2)c1)Cc1ccccc1 | 8.2 µM [falling, partial curve] |  |
| CC1(C)Cc2ccccc2-c2nc(-c3ccccc3)oc(=O)c21 | 20.6 µM [rising, single point] |  |
| CC(=O)Nc1sc(N/N=C\c2ccccc2Cl)nc1-c1cccs1 | 16.4 µM [falling, single point] |  |

| SMILES | AC50 [1] | AC50 [2] |
| --- | --- | --- |
| Cn1nnnc1SCC(=O)Nc1nc2c(s1)CCCC2 | 16.4 µM [rising, partial curve, poor fit] |  |
| Cc1noc(/C=C/c2ccco2)c1S(=O)(=O)N1CCC(C(=O)N2CCc3ccccc3C2)CC1 | 10 µM [rising, partial curve] |  |
| CN(C)C(C)(C)/C=C/C(O)(c1ccccc1)c1ccccc1 | 35.5 µM [falling, single point] |  |
| CCCCC(=O)Nc1ccc(Cl)cn1 | 0.708 µM [rising, partial curve, poor fit] |  |
| Cc1ccc(C(=O)Nc2ccnc(-c3ccncc3)n2)cc1 | 5.01 µM [rising, full curve, poor fit] |  |
| O=C(NC1CCCC1)C1CCCN1S(=O)(=O)c1cccc2cccnc12 (centres undefined) | 20.6 µM [falling, single point] |  |
| Cc1cnc(NC(=O)CSc2nnc(C)s2)s1 | 20.6 µM [falling, single point] |  |
| COC(=O)CCCNC(=O)c1ccccn1 | 35.5 µM [rising, single point] | 25.1 µM [falling, single point] |
| COC(=O)C1=C(C)NC=C([N+](=O)[O-])C1c1ccc(OC)cc1 (centres undefined) | 29.1 µM [rising, single point] |  |
| S=C(NCc1ccccn1)Nc1ccccc1 | 3.66 µM [rising, full curve] |  |
| CC(C)N(Cc1nnc(-c2ccc(Cl)cc2)o1)C(=O)C1=COCCO1 | 0.00461 µM [rising, full curve, poor fit] |  |
| O=C(Nc1cccc(-c2ccc(F)cc2)c1)C1CCCN(Cc2cccnc2)C1 (centres undefined) | 8.91 µM [falling, single point] |  |
| CCOc1cc(/C=N/NC(=O)c2ccc3c(c2)OCCO3)cc(Br)c1O | 12.6 µM [falling, partial curve, poor fit] |  |
| Cc1ccc(NC(=O)c2ccc(-n3cccn3)c([N+](=O)[O-])c2)cc1C | 20 µM [falling, single point] |  |
| COc1ccc(-n2c(SCC(=O)Nc3ncc(Cl)cc3Cl)nc3ccccc32)cc1 | 7.08 µM [falling, full curve] |  |
| Cc1cc(Cl)ccc1NNC(N)=S | 5.62 µM [rising, single point] |  |
| CN1CCN(C(=O)c2cc(C(C)(C)C)cc(C(C)(C)C)c2)CC1 | 3.55 µM [rising, full curve, poor fit] |  |
| CCOC(=O)CN1C(=O)/C(=C/c2cccc(Br)c2)Oc2ccccc21 | 2 µM [rising, full curve] |  |
| COC(=O)c1cn(NC(=O)CC2CCCCC2)c(=O)c2ccccc12 | 29.1 µM [rising, single point] |  |
| COC(=O)C(NC(=O)c1ccc(C)cc1)(Nc1cccc(C)n1)C(F)(F)F (centres undefined) | 18.4 µM [rising, partial curve, poor fit] |  |
| O=[N+]([O-])c1c(Nc2ccccc2O)cc(Cl)c2nonc12 | 28.2 µM [falling, partial curve, poor fit] | 31.6 µM [rising, single point] |
